Assay results published in the supplement of paper PMC12823440, “Inhibitors supercharge kinase turnover through native proteolytic circuits” (Nature, 2025).
Counter-ions that a name gives are not always drawn. The list shows a part of the results. The calls rarely recur for the same compound in another form.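 In K562 cells expressing nanoluciferase-fused kinases, luminescence was recorded at 4 h intervals between 2 and 18 h, normalized as percent of control with DMSO at 100% and a positive control at 0%. A significant (2 sigma) signal drop marks a time point as decreased. The authors' rule for a hit is not shown and takes in more than the number of time points.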

Amino acid sequences for entries named in this document (tags omitted). A change or cut given only in a name is not applied to a line headed by its entry.
UniProt P48730: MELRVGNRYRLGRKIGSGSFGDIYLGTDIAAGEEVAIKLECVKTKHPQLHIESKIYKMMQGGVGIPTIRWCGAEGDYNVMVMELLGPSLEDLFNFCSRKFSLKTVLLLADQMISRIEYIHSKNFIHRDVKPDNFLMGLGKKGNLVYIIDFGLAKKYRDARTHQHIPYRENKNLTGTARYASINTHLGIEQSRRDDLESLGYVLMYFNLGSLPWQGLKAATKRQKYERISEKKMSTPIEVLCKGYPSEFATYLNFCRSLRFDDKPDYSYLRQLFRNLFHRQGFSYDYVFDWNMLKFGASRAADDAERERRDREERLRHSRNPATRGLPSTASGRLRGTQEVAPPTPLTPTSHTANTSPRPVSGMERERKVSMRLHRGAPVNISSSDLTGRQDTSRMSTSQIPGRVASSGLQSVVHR
UniProt Q08345: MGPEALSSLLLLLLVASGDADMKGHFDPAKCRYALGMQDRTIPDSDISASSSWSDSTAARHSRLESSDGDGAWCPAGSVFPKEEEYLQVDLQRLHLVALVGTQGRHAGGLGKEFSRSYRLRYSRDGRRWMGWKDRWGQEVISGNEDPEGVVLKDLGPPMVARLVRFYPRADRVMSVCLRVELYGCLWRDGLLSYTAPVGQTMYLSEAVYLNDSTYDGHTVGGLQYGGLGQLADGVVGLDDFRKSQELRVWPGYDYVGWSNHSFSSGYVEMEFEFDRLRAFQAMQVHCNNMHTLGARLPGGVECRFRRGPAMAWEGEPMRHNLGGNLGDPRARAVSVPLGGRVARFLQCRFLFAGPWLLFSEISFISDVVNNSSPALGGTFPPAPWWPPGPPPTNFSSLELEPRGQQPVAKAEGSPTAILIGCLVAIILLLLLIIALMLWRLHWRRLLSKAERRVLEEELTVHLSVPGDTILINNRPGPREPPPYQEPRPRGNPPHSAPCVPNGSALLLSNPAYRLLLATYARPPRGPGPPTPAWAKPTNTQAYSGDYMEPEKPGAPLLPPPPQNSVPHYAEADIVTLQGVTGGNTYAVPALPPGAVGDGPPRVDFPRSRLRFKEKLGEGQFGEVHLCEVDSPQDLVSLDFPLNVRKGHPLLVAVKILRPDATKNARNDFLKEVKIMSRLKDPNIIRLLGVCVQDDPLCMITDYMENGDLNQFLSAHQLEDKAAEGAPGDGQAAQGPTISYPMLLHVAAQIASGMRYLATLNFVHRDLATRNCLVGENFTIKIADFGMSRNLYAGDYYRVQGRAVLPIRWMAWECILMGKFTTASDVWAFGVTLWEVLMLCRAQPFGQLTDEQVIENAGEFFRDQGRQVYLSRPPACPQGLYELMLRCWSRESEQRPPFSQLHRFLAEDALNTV
UniProt Q92630: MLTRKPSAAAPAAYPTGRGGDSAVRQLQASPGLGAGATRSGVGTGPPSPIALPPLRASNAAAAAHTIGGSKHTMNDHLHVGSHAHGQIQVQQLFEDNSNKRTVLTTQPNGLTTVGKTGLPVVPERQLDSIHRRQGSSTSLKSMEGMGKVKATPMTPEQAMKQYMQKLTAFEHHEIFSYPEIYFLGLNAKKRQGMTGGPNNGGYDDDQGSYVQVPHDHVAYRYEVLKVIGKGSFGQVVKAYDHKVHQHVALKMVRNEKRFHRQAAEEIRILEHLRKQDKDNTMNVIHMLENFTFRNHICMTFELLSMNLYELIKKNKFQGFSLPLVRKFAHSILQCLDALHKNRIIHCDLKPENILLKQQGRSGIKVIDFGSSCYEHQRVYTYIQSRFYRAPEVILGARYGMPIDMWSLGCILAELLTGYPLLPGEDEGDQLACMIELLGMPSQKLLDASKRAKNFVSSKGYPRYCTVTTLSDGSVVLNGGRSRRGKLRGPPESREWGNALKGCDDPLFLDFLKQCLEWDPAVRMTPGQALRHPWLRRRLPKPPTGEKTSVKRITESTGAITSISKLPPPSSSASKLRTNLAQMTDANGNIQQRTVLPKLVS
UniProt P21860, whole entry: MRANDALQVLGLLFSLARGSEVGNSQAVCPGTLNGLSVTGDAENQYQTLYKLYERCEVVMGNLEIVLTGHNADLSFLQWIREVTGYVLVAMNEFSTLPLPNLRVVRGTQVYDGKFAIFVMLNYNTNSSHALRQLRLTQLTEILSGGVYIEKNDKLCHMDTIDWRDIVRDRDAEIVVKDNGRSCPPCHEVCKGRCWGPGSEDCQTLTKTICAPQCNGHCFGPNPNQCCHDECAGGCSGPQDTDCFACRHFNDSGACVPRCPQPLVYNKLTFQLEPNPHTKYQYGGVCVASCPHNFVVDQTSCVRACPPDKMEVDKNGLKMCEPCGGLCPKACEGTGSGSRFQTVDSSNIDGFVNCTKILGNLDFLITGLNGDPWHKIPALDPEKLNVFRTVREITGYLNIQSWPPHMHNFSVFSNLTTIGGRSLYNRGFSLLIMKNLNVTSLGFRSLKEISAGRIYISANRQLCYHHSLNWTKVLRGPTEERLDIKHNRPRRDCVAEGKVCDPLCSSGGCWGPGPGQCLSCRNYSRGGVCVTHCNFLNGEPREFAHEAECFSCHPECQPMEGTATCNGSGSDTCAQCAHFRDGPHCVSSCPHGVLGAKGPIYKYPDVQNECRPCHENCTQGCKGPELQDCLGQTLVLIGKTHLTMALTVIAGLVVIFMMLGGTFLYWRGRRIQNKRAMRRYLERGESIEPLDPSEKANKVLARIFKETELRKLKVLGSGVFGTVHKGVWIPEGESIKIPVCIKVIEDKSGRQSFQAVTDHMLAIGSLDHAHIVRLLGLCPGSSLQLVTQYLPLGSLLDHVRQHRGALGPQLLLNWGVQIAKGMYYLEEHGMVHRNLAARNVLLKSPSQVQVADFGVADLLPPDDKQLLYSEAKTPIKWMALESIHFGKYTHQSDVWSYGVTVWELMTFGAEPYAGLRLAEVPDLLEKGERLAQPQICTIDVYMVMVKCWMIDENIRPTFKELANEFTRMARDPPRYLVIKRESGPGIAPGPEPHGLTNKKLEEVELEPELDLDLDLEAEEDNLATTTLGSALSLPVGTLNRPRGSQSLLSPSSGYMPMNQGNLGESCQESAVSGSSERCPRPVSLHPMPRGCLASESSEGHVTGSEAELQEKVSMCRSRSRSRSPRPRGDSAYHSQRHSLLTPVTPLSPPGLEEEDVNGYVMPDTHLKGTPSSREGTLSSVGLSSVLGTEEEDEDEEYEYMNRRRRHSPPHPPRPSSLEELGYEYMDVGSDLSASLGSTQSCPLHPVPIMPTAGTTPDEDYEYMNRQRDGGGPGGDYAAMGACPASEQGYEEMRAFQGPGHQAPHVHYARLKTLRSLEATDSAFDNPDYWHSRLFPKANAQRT
UniProt Q15303, whole entry R711C: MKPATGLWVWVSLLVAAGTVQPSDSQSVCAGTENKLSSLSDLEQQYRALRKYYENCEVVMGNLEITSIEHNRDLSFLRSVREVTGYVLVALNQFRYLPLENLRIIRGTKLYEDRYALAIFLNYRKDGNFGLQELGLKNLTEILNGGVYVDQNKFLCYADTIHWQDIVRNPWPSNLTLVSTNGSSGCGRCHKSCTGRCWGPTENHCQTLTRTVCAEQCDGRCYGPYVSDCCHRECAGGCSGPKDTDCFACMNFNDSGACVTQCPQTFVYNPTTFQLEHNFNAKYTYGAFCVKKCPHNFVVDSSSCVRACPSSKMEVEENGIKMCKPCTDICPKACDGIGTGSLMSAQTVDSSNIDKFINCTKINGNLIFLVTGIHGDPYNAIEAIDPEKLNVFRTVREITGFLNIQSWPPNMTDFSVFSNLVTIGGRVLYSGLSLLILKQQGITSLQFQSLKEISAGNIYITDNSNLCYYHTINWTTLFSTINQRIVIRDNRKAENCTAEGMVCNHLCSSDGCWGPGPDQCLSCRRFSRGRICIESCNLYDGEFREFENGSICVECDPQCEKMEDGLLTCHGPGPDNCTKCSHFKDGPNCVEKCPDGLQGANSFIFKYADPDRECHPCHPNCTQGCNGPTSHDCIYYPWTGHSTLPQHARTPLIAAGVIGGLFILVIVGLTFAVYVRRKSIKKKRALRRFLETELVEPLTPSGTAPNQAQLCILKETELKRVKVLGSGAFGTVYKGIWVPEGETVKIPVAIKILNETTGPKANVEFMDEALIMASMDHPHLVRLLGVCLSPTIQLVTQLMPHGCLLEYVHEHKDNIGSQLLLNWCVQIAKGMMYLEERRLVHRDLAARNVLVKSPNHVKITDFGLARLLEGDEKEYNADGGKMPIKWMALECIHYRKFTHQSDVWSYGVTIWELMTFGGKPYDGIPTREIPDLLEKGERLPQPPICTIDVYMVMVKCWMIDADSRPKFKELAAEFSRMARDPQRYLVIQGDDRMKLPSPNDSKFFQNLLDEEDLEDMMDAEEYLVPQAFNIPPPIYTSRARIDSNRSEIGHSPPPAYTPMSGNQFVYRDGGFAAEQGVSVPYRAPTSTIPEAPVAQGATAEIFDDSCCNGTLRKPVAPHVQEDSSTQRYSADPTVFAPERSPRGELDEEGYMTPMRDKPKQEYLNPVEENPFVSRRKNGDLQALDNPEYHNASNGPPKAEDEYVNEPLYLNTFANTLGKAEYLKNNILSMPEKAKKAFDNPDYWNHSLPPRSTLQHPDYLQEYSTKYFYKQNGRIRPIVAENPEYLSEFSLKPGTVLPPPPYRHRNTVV
UniProt O75460: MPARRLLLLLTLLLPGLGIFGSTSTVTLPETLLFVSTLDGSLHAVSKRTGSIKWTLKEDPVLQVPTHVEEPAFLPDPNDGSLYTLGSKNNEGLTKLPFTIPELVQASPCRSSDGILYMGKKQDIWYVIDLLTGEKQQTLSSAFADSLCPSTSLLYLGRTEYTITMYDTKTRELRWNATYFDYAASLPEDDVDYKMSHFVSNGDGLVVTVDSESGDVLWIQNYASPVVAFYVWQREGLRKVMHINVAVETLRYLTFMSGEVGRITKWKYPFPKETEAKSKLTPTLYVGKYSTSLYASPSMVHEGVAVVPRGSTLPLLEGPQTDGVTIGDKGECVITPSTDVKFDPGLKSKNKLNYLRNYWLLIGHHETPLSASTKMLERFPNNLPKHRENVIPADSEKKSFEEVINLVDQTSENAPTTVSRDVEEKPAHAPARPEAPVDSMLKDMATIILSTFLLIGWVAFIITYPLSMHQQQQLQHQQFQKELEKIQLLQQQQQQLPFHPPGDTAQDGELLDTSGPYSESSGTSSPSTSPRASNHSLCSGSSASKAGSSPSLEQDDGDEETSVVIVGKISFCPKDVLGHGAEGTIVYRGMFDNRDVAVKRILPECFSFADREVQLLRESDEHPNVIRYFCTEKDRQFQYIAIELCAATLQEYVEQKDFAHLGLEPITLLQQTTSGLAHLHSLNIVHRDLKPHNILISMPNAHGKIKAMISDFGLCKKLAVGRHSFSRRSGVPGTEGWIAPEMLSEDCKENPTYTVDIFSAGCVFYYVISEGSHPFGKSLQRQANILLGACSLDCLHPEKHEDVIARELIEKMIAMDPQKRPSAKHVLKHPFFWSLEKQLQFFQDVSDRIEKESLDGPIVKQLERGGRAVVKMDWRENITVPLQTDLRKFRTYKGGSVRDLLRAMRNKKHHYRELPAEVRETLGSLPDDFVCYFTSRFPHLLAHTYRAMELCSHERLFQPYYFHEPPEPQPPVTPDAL
UniProt P21802, whole entry, looked up: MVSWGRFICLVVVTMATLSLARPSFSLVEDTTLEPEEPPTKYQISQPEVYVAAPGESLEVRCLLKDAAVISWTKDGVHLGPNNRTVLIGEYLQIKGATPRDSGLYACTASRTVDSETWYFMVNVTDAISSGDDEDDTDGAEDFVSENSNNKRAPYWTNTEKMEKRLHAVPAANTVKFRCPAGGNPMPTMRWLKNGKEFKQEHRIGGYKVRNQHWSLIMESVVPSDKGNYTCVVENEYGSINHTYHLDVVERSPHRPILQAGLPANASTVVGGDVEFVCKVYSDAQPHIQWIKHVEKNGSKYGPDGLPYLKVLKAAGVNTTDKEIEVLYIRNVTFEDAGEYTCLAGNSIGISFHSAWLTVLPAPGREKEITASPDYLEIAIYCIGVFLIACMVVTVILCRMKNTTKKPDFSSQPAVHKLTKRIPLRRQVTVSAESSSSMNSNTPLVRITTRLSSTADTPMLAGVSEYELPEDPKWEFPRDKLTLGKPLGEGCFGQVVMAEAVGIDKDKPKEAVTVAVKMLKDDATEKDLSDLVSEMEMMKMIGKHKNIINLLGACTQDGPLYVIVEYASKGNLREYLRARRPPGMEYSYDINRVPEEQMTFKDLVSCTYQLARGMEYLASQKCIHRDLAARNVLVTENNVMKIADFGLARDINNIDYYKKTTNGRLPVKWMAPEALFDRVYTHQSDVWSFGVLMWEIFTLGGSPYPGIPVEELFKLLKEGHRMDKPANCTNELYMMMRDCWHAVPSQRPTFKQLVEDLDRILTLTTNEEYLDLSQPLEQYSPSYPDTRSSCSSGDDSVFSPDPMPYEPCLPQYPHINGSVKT

Tests used:
Test in all cases: number of time points (of 5) at which kinase-Nluc abundance scored as decreased, DMSO-normalised (count); higher = more persistent destabilization
Conditions in all cases: K562; 2-18 h
CSNK1A1 = CSNK1A1 (UniProt P48729)
CSNK1D = CSNK1D (UniProt P48730)
DDR1 = DDR1 (UniProt Q08345)
DYRK1B = DYRK1B (UniProt Q9Y463)
DYRK2 = DYRK2 (UniProt Q92630)
EGFR = EGFR (UniProt P00533)
EGFR_G719S = EGFR_G719S (UniProt P00533)
EGFR_G719S_T790M = EGFR_G719S_T790M (UniProt P00533)
EGFR_L718V = EGFR_L718V (UniProt P00533)
EGFR_L858R = EGFR_L858R (UniProt P00533)
EGFR_L861Q = EGFR_L861Q (UniProt P00533)
EGFR_T790M = EGFR_T790M (UniProt P00533)
EPHA2 = EPHA2 (UniProt P29317)
ERBB3 = ERBB3 (UniProt P21860)
[1] = biological target: ERBB4_R711C (clone: ERBB4_mut) (UniProt Q15303)
ERN1 = ERN1 (UniProt O75460)
FGFR1 = FGFR1 (UniProt P11362)
FGFR2 = FGFR2 (UniProt P21802)
FGFR3 = FGFR3 (UniProt P22607)
FGR = FGR (UniProt P09769)

| SMILES | number of time points (CSNK1A1) | number of time points (CSNK1D) | number of time points (DDR1) | number of time points (DYRK1B) | number of time points (DYRK2) | number of time points (EGFR) | number of time points (EGFR_G719S) | number of time points (EGFR_G719S_T790M) | number of time points (EGFR_L718V) | number of time points (EGFR_L858R) | number of time points (EGFR_L861Q) | number of time points (EGFR_T790M) | number of time points (EPHA2) | number of time points (ERBB3) | number of time points [1] | number of time points (ERN1) | number of time points (FGFR1) | number of time points (FGFR2) | number of time points (FGFR3) | number of time points (FGR) |
| --- | --- | --- | --- | --- | --- | --- | --- | --- | --- | --- | --- | --- | --- | --- | --- | --- | --- | --- | --- | --- |
| CC[C@H](C)[C@@H]1NC(=O)[C@@H]2CCCN2C(=O)[C@@H]2CCCN2C(=O)[C@@H]2CCCN2C(=O)[C@H](CC(C)C)NC(=O)CNC(=O)CNC(=O)[C@H](Cc2ccccc2)NC1=O [Heterophyllin B] (10 µM) | 0 | 0 | 0 | 0 | 0 | 0 | 0 | 0 | 0 | 0 | 0 | 0 | 0 | 0 | 0 | 0 | 0 | 0 | 0 | 0 |
| COc1cccc2cc(-c3nc([C@H]4CC[C@H](C(=O)O)CC4)n4ncnc(N)c34)[nH]c12 (2.5 µM) | 3 | 2 | 2 | 2 | 4 | 0 | 3 | 1 | 1 | 0 | 2 | 0 | 0 | 3 | 4 | 1 | 4 | 3 | 0 | 0 |
| C[C@@]12CCc3occc3[C@H]1CC[C@@]13C[C@@H](CC[C@H]12)[C@@](O)(CO)C3 [Cafestol] (10 µM) | 0 | 0 | 0 | 0 | 0 | 0 | 0 | 0 | 0 | 0 | 0 | 0 | 0 | 0 | 0 | 0 | 0 | 0 | 0 | 0 |
| CNS(=O)(=O)Nc1nccc(Cc2c(C)c3ccc(Oc4ncccn4)cc3oc2=O)c1F (10 µM) | 0 | 1 | 1 | 0 | 2 | 0 | 1 | 1 | 1 | 2 | 3 | 1 | 0 | 3 | 1 | 0 | 0 | 2 | 0 | 0 |
| CS(=O)(=O)N1CCc2c(-c3cnc(N)nc3)nc(N3CCOCC3)nc21 (10 µM) | 0 | 0 | 1 | 0 | 0 | 0 | 0 | 0 | 0 | 0 | 0 | 0 | 0 | 0 | 0 | 0 | 2 | 0 | 0 | 0 |
| CCC(=O)N1CC[C@H](Nc2ncnc3c2CN(c2cnc(OC)c(C(F)(F)F)c2)CC3)C1 [Leniolisib] (10 µM) | 0 | 0 | 0 | 0 | 0 | 0 | 0 | 0 | 0 | 0 | 0 | 0 | 0 | 0 | 0 | 0 | 0 | 0 | 0 | 0 |
| CCCCNc1ncc2c(-c3ccc(CN4CCN(C)CC4)cc3)cn([C@H]3CC[C@H](O)CC3)c2n1 [UNC2025 (hydrochloride)] (2.5 µM) | 0 | 0 | 4 | 0 | 4 | 0 | 0 | 0 | 0 | 0 | 2 | 0 | 0 | 0 | 0 | 0 | 0 | 1 | 0 | 0 |
| CNC(=O)c1c(C)oc2cc(Oc3ncnc4cc(OC)c(OC)cc34)ccc12 [Fruquintinib] (10 µM) | 0 | 0 | 0 | 0 | 0 | 0 | 0 | 0 | 0 | 0 | 0 | 0 | 0 | 0 | 0 | 0 | 0 | 0 | 0 | 0 |
| Cc1occ2c1C(=O)c1c(O)ccc(O)c1C2 (2.5 µM) | 0 | 0 | 0 | 0 | 0 | 0 | 0 | 0 | 0 | 0 | 0 | 0 | 0 | 0 | 0 | 0 | 0 | 0 | 0 | 0 |
| O=C(O)[C@]1(Cc2cccc(Nc3nccs3)n2)CC[C@@H](Oc2cccc(Cl)c2F)CC1 (2.5 µM) | 0 | 1 | 1 | 1 | 3 | 0 | 0 | 1 | 1 | 1 | 1 | 1 | 0 | 2 | 3 | 0 | 0 | 1 | 0 | 0 |
| C=CC(=O)N1CCN(c2nc(OC[C@@H]3CCCN3C)nc3c2CCN(c2cccc4cccc(C)c24)C3)C[C@@H]1CC#N (2.5 µM) | 0 | 0 | 0 | 0 | 0 | 0 | 0 | 0 | 0 | 0 | 0 | 0 | 0 | 0 | 0 | 0 | 0 | 0 | 0 | 0 |

Single records, as listed above. Values in the order: number of time points (CSNK1A1)	number of time points (CSNK1D)	number of time points (DDR1)	number of time points (DYRK1B)	number of time points (DYRK2)	number of time points (EGFR)	number of time points (EGFR_G719S)	number of time points (EGFR_G719S_T790M)	number of time points (EGFR_L718V)	number of time points (EGFR_L858R)	number of time points (EGFR_L861Q)	number of time points (EGFR_T790M)	number of time points (EPHA2)	number of time points (ERBB3)	number of time points [1]	number of time points (ERN1)	number of time points (FGFR1)	number of time points (FGFR2)	number of time points (FGFR3)	number of time points (FGR)
C=CC(=O)N1CCN(c2nc(OC[C@@H]3CCCN3C)nc3c2CCN(c2cccc4cccc(C)c24)C3)C[C@@H]1CC#N (2.5 µM) as listed: 0	0	0	0	0	0	0	0	0	0	0	0	0	0	0	0	0	0	0	0
O=C(O)[C@]1(Cc2cccc(Nc3nccs3)n2)CC[C@@H](Oc2cccc(Cl)c2F)CC1 (2.5 µM) as listed: 0	1	1	1	3	0	0	1	1	1	1	1	0	2	3	0	0	1	0	0
